# In publication PMC8151980:
# No constants are given. Whether binding was seen depends on the method and setting. Binding seen in cells or lysates may run through a third protein. Some results given as binding are weak or reduced against the parent protein; the word gives no strength. Where a sequence is shown, tags or fusion partners need not be part of it.
# T1: hexa-histidine-tagged, 35S-methionine-labeled chloroplast envelope quinone oxidoreductase homologue (ceQORH-(His)6) (UniProt Q9SV68)
# T1 sequence (chain, 35S-methionine-labeled): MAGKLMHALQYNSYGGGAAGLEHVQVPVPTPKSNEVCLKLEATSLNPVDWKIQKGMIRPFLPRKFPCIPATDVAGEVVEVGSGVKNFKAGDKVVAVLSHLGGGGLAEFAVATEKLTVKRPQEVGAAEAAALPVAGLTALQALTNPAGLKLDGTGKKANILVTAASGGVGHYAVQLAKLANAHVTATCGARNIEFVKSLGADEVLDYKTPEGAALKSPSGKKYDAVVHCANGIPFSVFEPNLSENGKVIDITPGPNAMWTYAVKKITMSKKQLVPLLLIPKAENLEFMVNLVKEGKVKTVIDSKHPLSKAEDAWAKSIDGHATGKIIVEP
# Molecular target: T1, hexa-histidine-tagged, 35S-methionine-labeled chloroplast envelope quinone oxidoreductase homologue (ceQORH-(His)6)
# Test: pull-down; purified 35S-ceQORH-(His)6 incubated 15 min with isolated Arabidopsis chloroplasts at 0.1 mM Mg-GTP and 0.1 mM Mg-ATP; envelope membranes detergent-solubilized (2% Triton X100, 300 mM NaCl, 20 mM imidazole); import intermediate-associated proteins purified by Ni-NTA chromatography, separated by 1D or 2D SDS-PAGE, Coomassie-stained and identified by protein sequencing; only the target purified
row,Binder,binding
1,"HP30-2 (At5g24650) (protein, UniProt Q9FLT9 1-259) MGKDGEGDKKRETMAVMSLMKDQQNPIQQFQVKFKEIETGFKSWLSKQKLPVEAAVVTAMGGVQGAFIGGLMGTLSPEMPQAGIDPQAMASLKQTQALVGGPLVQARNFAAITGVNAGIACVMKRIRGKEDLESAVVAAFGSGVAYSLVSAGLQGQPMNAITTAAGFAVFQGVFFKLGERFSKPSVEDPYYTRGRSMLLKLGLEKYEKNFKKGLLADPTLPLLTDSALRDVSIPPGPRLLILDHIQRDPELKGKRGSRG",binds
2,"HP30 (At3g49560) (protein, UniProt Q9SCK3 1-261) MVVGGGGEGDQKRSSGEMMAMASLFNDQQNPIQQFQVKFKEVETNFKTWLSKQSIPVEAAVVSTMSGVQGAFIGGLMGTLSPEMPQAGVDPQAIASMKQAQALVGGPWVQARNFAAITGVNAGIASVMKRIRGKEDIESAVVAALGSGFAYSLVSQGLQGQPMNAITTAAGFAVFQGVFFKLGERFSKPSTEDPFFTRGRTMLVKLGLEKYEKNFKKGLLTDPTLPLLTDSALKDANIPPGPRLMILDHIQRDPEIKGKRK",binds
3,"HP20 (At4g26670) (protein, UniProt Q94EH2 1-210) MAANDSSNAIDIDGNLDSDSNLNTDGDEATDNDSSKALVTIPAPAVCLFRFAGDAAGGAVMGSIFGYGSGLFKKKGFKGSFADAGQSAKTFAVLSGVHSLVVCLLKQIRGKDDAINVGVAGCCTGLALSFPGAPQALLQSCLTFGAFSFILEGLNKRQTALAHSVSLRHQTGLFQDHHRALPLSLALPIPEEIKGAFSSFCKSLAKPRKF",binds

# Next, values leading:
row,binding,Binder
1,binds,"TIC55 (protein, UniProt Q9SK50 51-539) AVAGTAVSDQTEGGGDVLLNPEEEKRVEVADYDWTEEWYPLYLTKNVPEDAPLGLTVYDRQIVLYKDGEGTLRCYEDRCPHRLAKLSEGQLIDGRLECLYHGWQFEGEGKCVKIPQLPASAKIPKAACVKTYEVKDSQGVVWVWMSTKTPPNPEKLPWFENFARPGFFDISTTHELPYDHSILLENLMDPAHVPISHDRTDFTAKREDAQPLVFEVTERSNRGFAGTWGREKEGGKGSNLLRFDAPCVLQNNREFEGKDGVKNYFSGLFLCRPTGQGKSMLIVRFGVTKRSPLVSVLPQWFWHQNACKVFEQDMGFLSSQNEVLMKEKVPTKDLYLNLKSSDTWVAEYRKWMDKVGHGMPYHFGHRTISLPKVPPVVEHAPAGLIAALSASYPAKGGIGTMHAPNLANRYFRHIIHCRSCSNVIKSFELWKNILSATAVALTALAILVVSRQWKAVLLGSAALCSAAAYTCLRAINLNTNNFIRTHRRL"
2,binds,"TOC34 (protein, UniProt Q38906 1-313) MAALQTLREWIGIQQFPPATQSKLLEILGKYKEEDVSSLTVLVMGKGGVGKSSTVNSVIGEKAAAVSTFQSEGLRPTLVSRTRSGFTLNIIDTPGLIEGGYVNDQAINIIKRFLLNMTIDVLLYVDRLDVYRVDDLDRQVVGAITDAFGKEIWKKSALVLTHAQFSPPDGLNYNHFVSKRSNALLKVIQTGAQLKKQDLQGFSIPVILVENSGRCHKNESDEKILPCGTSWIPNLFNKITEISFNGNKAIHVDKKLVEGPNPNERGKKLIPLMFAFQYLLVMKPLVRAIKSDVSRESKPAWELRDSGLASRRS"
3,binds,"TOC90 (protein, UniProt Q6S5G3 1-793) MKGFKDWVFALSNSMASSRPLLGSDPFFRDPHQEQDNHSQAPAAPQPVTLSEPPCSTSSDLEILPPLSQQQVPLESLYQSSIDLNGKKHNPLAKIGGLQVQFLRLVQRFGQSQNNILVSKVLYRVHLAMLIRAEESELKNVKLRQDRAKALAREQESSGIPELDFSLRILVLGKTGVGKSATINSIFGQPKSETDAFRPGTDRIEEVMGTVSGVKVTFIDTPGFHPLSSSSTRKNRKILLSIKRYVKKRPPDVVLYLDRLDMIDMRYSDFSLLQLITEIFGAAIWLNTILVMTHSAATTEGRNGQSVNYESYVGQRMDVVQHYIHQAVSDTKLENPVLLVENHPSCKKNLAGEYVLPNGVVWKPQFMFLCVCTKVLGDVQSLLRFRDSIGLGQPSSTRTASLPHLLSVFLRRRLSSGADETEKEIDKLLNLDLEEEDEYDQLPTIRILGKSRFEKLSKSQKKEYLDELDYRETLYLKKQLKEECRRRRDEKLVEEENLEDTEQRDQAAVPLPDMAGPDSFDSDFPAHRYRCVSAGDQWLVRPVYDPQGWDRDVGFDGINIETAAKINRNLFASATGQVSRDKQRFTIQSETNAAYTRNFREQTFSVAVDLQSSGEDLVYSFQGGTKLQTFKHNTTDVGVGLTSFGGKYYVGGKLEDTLLVGKRVKLTANAGQMRGSGQTANGGSFEACIRGRDYPVRNEQIGLTMTALSFKRELVLNYGLQTQFRPARGTNIDVNINMNNRKMGKINVKLNSSEHWEIALISALTMFKALVRRSKTEMTEENEEEKIVNFLVS"
